Measured values reported in PubChem BioAssay AID445 (National Center for Advancing Translational Sciences (NCATS), 2006).
Some of the results follow. Shown are side measurements of this screen, not its main read-out; they come without a call. Compounds called inactive in the main read-out are mostly missing here. Words in brackets tell the shape of the fitted curve; partial curves, single points and poor fits give uncertain potencies.

Test: IkB Signaling
Conditions: ABC-DLBCL IkBa-CBG/CBR dual luciferase ratio (green luciferase fused to IkBa over red control in OCI-Ly3 lymphoma cells), 4 h
How it was run: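 In this assay, an IκBα–CBG68 fusion accumulates when IKK-driven degradation is blocked; native CBR normalizes for cell number. OCI-Ly3 cells were treated 4 h with compound and doxycycline, then green and red light read after Chroma-Glo addition.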

[1] = measured here: control luc red channel unless noted
[2] = measured here: IkB-luc green channel
[3] = measured here: control luc red channel

## C=CCOc1ccccc1/C=c1\sc2nc(=O)c(C)nn2c1=O
[1]
  AC50: 6.31 µM [falling, partial curve]

## Fc1ccc(C(c2nnc(-c3ccccc3)o2)N2CCN(c3ccccc3)CC2)c(Cl)c1 (stereo not drawn)
[1]
  AC50: 20 µM [falling, partial curve]

## CCOc1ccc(-n2c(SCC(=O)Nc3ccc4c(c3)OCO4)nc3c(c2=O)SCC3)cc1
[2]
  AC50: 3.16 µM [rising, full curve]
[3]
  AC50: 0.794 µM [falling, full curve]

## CC(C)C(=O)Nc1c(C(=O)N2CCN(c3ccccc3F)CC2)oc2ccccc12
[1]
  AC50: 12.6 µM [falling, partial curve]

## Cc1ccc(-c2nc3sc(CCNC(=O)c4ccco4)c(C)n3n2)cc1
[1]
  AC50: 15.8 µM [falling, single point]

## Cc1ccccc1NC(=O)CCc1c(C)nc2c(c1C)c(=O)n(C)c(=O)n2C
[1]
  AC50: 39.8 µM [falling, single point]

## CS(=O)(=O)N1CCCC(c2nc(-c3ccc(S(=O)(=O)NCc4ccccc4)cc3)no2)C1 (stereo not drawn)
[1]
  AC50: 15.8 µM [falling, partial curve]

## COc1cccc(NC(=O)c2nnn(Cc3cccc(C(F)(F)F)c3)c2N)c1
[1]
  AC50: 7.94 µM [rising, partial curve]

## Cc1csc(NC(=O)CSc2nnc(-c3ccoc3C)n2CCc2ccccc2)n1
[1]
  AC50: 31.6 µM [falling, single point]

## Cc1cccc(CN2C(=O)c3ccccc3S(=O)(=O)c3ccc(C(=O)N4CCCC4)cc32)c1
[1]
  AC50: 31.6 µM [falling, single point]

## CNc1nnc(-c2cc3ccccc3oc2=O)s1
[1]
  AC50: 2.51 µM [falling, full curve, poor fit]

## Cc1oc(-c2ccccc2Cl)nc1CS(=O)(=O)CC(=O)NC(C)CCc1ccccc1 (stereo not drawn)
[1]
  AC50: 15.8 µM [falling, partial curve]

## COc1ccc(C(=O)Nc2nc3nc(C)c(Cl)c(=O)n3[nH]2)cc1
[1]
  AC50: 39.8 µM [falling, partial curve, poor fit]

## Cc1ccc2nc(Cl)c3cc(C(=O)NC4CCCCC4)sc3c2c1
[1]
  AC50: 3.98 µM [rising, single point]

## CCOC(=O)c1ccc(NC(=O)c2nsc3ccccc23)cc1
[1]
  AC50: 0.0631 µM [falling, full curve]

## COc1ccccc1NC(=O)c1ccccc1-c1nc(-c2ccccc2OC)no1
[1]
  AC50: 3.98 µM [falling, full curve]

## CN1CCc2nc3sc(C(=O)Nc4c(F)cccc4F)c(N)c3cc2C1
[1]
  AC50: 3.16 µM [falling, partial curve]

## Cc1ccc(-c2cnc(NCc3c(F)cccc3Cl)n2C)cc1
[1]
  AC50: 25.1 µM [falling, single point]

## O=C(NCc1cccs1)c1cc2c(s1)-c1ccccc1OC2
[1]
  AC50: 6.31 µM [falling, partial curve]

## CCOC(=O)c1cc(S(=O)(=O)N2CCN(c3cc(Cl)ccc3C)CC2)[nH]n1
[1]
  AC50: 20 µM [falling, partial curve, poor fit]

## Cc1ccc(C)c2sc(N3CCN(C(=O)c4ccco4)CC3)nc12
[1]
  AC50: 1.58 µM [rising, full curve]

## Cc1ccc(NC(=O)Cn2ncc3c4ccccc4n(Cc4ccccc4)c3c2=O)cc1Cl
[1]
  AC50: 31.6 µM [falling, single point]

## Cc1cn2c(=O)c(S(=O)(=O)NC(C)c3ccccc3)c(C)nc2s1 (stereo not drawn)
[1]
  AC50: 0.251 µM [rising, partial curve]

## Cc1cccc(Cn2c(-c3cccs3)nc3ccccc32)c1
[1]
  AC50: 25.1 µM [falling, single point]

## NC(=O)Cn1c(=O)n(-c2ccc(F)c(Cl)c2)c(=O)c2sc3ccccc3c21
[1]
  AC50: 7.94 µM [falling, partial curve]

## O=c1c2sc3ccccc3c2n(Cc2ccccc2F)c(=O)n1-c1ccccc1Cl
[1]
  AC50: 5.01 µM [rising, partial curve]

## Cc1ccccc1NC(=O)c1c(C)oc2ccc(O)c(CN3CCCC(C)C3)c12 (stereo not drawn)
[1]
  AC50: 25.1 µM [falling, single point]

## CCN(CC)S(=O)(=O)c1ccc2nc(NC(=O)c3ccccc3OC)sc2c1
[1]
  AC50: 3.16 µM [falling, full curve, poor fit]

## Cc1nnc(N2CCC(C(=O)NCc3ccc(F)cc3)CC2)c2nn(-c3ccc(Cl)cc3)c(C)c12
[2]
  AC50: 39.8 µM [rising, single point]
[3]
  AC50: 39.8 µM [rising, partial curve]

## Cc1ccc2[nH]c(=O)c(-c3nc4c(C)cccn4c3NCc3ccco3)cc2c1
[1]
  AC50: 39.8 µM [falling, single point]

## CCCCOc1ccc(C(=O)NCCS(=O)(=O)N2CCN(c3ccccc3OC)CC2)cc1
[1]
  AC50: 25.1 µM [falling, partial curve]
